According to publication doi:10.1101/2025.10.24.684405:
Where a chain is given by its changes, count along the chain named. Numbers in names are those of the source. Results are given in words; binding and its absence hold for the method and conditions named. For part of these data: In cells and extracts the contact can be indirect. Some entries that bind do so weakly or less than the wild type. Where a sequence is shown, tags or fusion partners need not be part of it. Each block holds one binder with its values, some of them ahead of it.

Columns and labels:
[1] = target: T1, human CTU1 (cytosolic thiouridylase 1), 6xHis and Twin-Strep tagged (human) (UniProt Q7Z7A3); assay: SEC
T1 sequence: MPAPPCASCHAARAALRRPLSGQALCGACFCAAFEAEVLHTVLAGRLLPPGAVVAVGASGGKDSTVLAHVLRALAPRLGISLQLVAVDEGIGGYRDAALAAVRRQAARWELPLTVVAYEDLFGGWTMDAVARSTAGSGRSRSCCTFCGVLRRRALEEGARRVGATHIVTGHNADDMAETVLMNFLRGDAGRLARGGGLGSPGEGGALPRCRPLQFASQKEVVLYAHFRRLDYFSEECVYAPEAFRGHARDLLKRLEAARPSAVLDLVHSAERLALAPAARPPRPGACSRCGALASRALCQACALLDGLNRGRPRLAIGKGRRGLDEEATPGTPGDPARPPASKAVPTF

[2] = target: T1, human CTU1 (cytosolic thiouridylase 1), 6xHis and Twin-Strep tagged (human); assay: pull-down

binding [1]: binds
binding [2]: binds
B1: human CTU2 (cytosolic thiouridylase 2), wildtype, 6xHis tagged (protein, UniProt Q2VPK5 1-515)
chain: MCQVGEDYGEPAPEEPPPAPRPSREQKCVKCKEAQPVVVIRAGDAFCRDCFKAFYVHKFRAMLGKNRLIFPGEKVLLAWSGGPSSSSMVWQVLEGLSQDSAKRLRFVAGVIFVDEGAACGQSLEERSKTLAEVKPILQATGFPWHVVALEEVFSLPPSVLWCSAQELVGSEGAYKAAVDSFLQQQHVLGAGGGPGPTQGEEQPPQPPLDPQNLARPPAPAQTEALSQLFCSVRTLTAKEELLQTLRTHLILHMARAHGYSKVMTGDSCTRLAIKLMTNLALGRGAFLAWDTGFSDERHGDVVVVRPMRDHTLKEVAFYNRLFSVPSVFTPAVDTKAPEKASIHRLMEAFILRLQTQFPSTVSTVYRTSEKLVKGPRDGPAAGDSGPRCLLCMCALDVDAADSATAFGAQTSSRLSQMQSPIPLTETRTPPGPCCSPGVGWAQRCGQGACRREDPQACIEEQLCYSCRVNMKDLPSLDPLPPYILAEAQLRTQRAWGLQEIRDCLIEDSDDEAGQS

binding [1]: binds
B2: human CTU2 H57A/R60A double mutant, 6xHis tagged (protein, UniProt Q2VPK5 1-515)
chain: B1 chain with H57A, R60A
